Test results published in article PMC10516654, “Structural and functional characterization of MrpR, the master repressor of the Bacillus subtilis prophage SPβ”.

Biological target: T1, MrpR (Bacillus subtilis prophage SPβ) (UniProt O34558)
T1 sequence (looked up, limits assumed): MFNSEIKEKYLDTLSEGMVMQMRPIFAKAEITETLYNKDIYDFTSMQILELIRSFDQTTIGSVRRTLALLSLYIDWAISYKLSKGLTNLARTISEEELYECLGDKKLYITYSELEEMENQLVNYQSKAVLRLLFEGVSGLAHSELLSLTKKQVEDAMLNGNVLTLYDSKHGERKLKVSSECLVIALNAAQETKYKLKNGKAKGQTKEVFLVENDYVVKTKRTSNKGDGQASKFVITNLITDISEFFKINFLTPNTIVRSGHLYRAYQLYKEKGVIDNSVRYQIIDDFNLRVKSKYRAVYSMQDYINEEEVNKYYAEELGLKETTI
Assay: EMSA
Settings: herring sperm DNA, EMSA: same buffer plus 50 ug/ml herring sperm DNA, RT 15 min, 6% native PAGE 0.5x TBE, recombinant protein, probe letters rebuilt from the primers and the genome

Row | Sequence | binding result (shift at 5-fold protein excess over 50 nM DNA, protein details: C-terminal His6, label: Dyomics 781 at 5' end of reverse primer) | binding result (shift at approx. 10- to 20-fold excess over 50 nM DNA, protein details: C-terminal His6, label: Cy3 at 5' end of forward primer)
1 | CAGCATACTCCAATGCACTTCTTGCTGCCTTTGTCTTAACATCTAGGTTTAAACAGTAATCTTTCATTAATTCATATTCACGGTCTGGATACTGACTCTTAACAATGTTGACTATTGAAGAAAATTCATTAAATGTTTTCCCATCATGGTTTAAGAAGTCATAAAGAGGATTGGGGTTTTTAAGGCCAGCTACTGTTGCCCATTTATTCATTAAAGAGTTGTCATTTTCCAAGTCTTTCTTCATAGCTATCCTTATTAACTCCATTATTTCCCCTCATTTCTTTTTGTTGTCTTTATTGGTTAACTTAATAATACTATAGATCACATTACGAGTCAATTATTTTATACATATTTTTTGTATTTGTAATCTCTTTAAAATTCCAATTTTAACTAGACACAATGAGGACTAAACCTCATTGTGTTCTTCTAAAGCAAAAGGTCCTACTTAAGGCTATAATACACCTCTTCCGCAATATCCTTTGCAAACCTAGCGAAAATTTCTCTATCAAAACTTCTTAAGCATTTAGCTAAGGACAGGATATTCTGCACATGGTCAAGTGTATTAGTCAAATCTAATGCCGTTACCAAAGAAAGCAACATGTCTTTGTAGTTCATATCTCCGGC (double strand) [PaimR EMSA fragment with SPBRE] | binds | –
2 | CTTTTGTAATAGCAGCCGATTGTAATGTCAATGTAGCTGCATCGTCTATTGACATGAAAAATCTGGTCATGTTTTTGTCTGTGATGGTCAGAGGTTCACCCTCCATCATCTGTTCAAATAATATGGGGATGACCGAACCTCTGGAACCGAGAACATTTCCAAAGCGGACCGAACAAAACAAGGTTCCTTTGTTTTGGACGTGGCGGTTTGCTTGATGAAACAGCTTTTCAGATAACAGCTTGGTGGCACCCATTGTGTTCACAGGAGATACAGCTTTATCTGTTTTTTAAGATACTTACTACTTTTCTTAGTGGAAACTATTAGTGGCTGTGAGGTCAAAAATGAAATTAAACCTTAGGATAGGGGTTATTTCAAATTGAGCTGGTATAGGCCCTTTTCTTTTTTGTGTCATGTTAACAATAACATCTTTTAAGACCATCCTTAATAGCTCGTTCTTTTTCTCTGAGCTTGATTCAATGTGATACTGGTCAATTATTTTATTTATGTTGTTTCTCACTGTATTACTGTCTATTTCTGATTGTGTATCTTGTAATCCATTGAGCTCATTCTTTGCATTCTGGAGCTCTTTAAATTCTTCATCTAATGCAGC (double strand) [attR EMSA fragment (no SPBRE)] | – | binds more weakly

Construct, isoform or probe ends are uncertain for at least one entry. The comparison behind a weaker result is the experiment's own reference, which may not be listed here. Where a protein sequence is shown, tags need not be part of it.
